{
  "source": "the supplement of paper PMC8728848",
  "binders": {"B1": {"name": "CM2 (Cordyceps militaris) (protein)", "chain": "MEIAEQNVGKSCAIVNLIPPKEGSNIWTAKQVTIARNLPPNRGTGRHQIDWSFGPVKVTGYVDTTNWEIGVTVSIMGIDLGTVYGNLRDGVVLNVDLFLAKGQVRFYLKNGNEVWVHLSVEIRFDGKFEGDYKIITV"}},
  "assay_in_all_cases": "glycan array binding signal (z-score within array); higher = stronger binding",
  "conditions_in_all_cases": "glycan notation: IUPAC condensed, linker removed",
  "key": {"[1]": {"target": "GlcNAc(b1-4)GlcNAc(b1-4)GlcNAc(b1-4)GlcNAc(b1-4)GlcNAc(b1-4)GlcNAc", "procedure,_shortened": "(§1)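 Glycan array binding is given as a within-array Z-score, which can be read as non-binding when negative. The arrays, 3228 of them, came from the Consortium for Functional Glycomics database and were retained only where the protein sequence was available. Z-scores were averaged across arrays of the same protein sequence at different concentrations or buffers and across linkers.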"}, "[2]": {"target": "GlcNAc(b1-4)[GlcNAc(b1-6)]GalNAc", "procedure,_shortened": "as §1"}, "[3]": {"target": "GlcNAc(b1-6)Gal(b1-4)GlcNAc", "procedure,_shortened": "as §1"}, "GlcNAc(b1-6)GalNAc": {"target": "GlcNAc(b1-6)GalNAc", "procedure,_shortened": "as §1"}, "[4]": {"target": "GlcNAc6S(b1-3)Gal(b1-4)GlcNAc", "procedure,_shortened": "as §1"}, "Kdn(a2-3)Gal(b1-3)GalNAc": {"target": "Kdn(a2-3)Gal(b1-3)GalNAc", "procedure,_shortened": "as §1"}, "Kdn(a2-3)Gal(b1-3)GlcNAc": {"target": "Kdn(a2-3)Gal(b1-3)GlcNAc", "procedure,_shortened": "as §1"}, "Kdn(a2-3)Gal(b1-4)Glc": {"target": "Kdn(a2-3)Gal(b1-4)Glc", "procedure,_shortened": "as §1"}, "Kdn(a2-3)Gal(b1-4)GlcNAc": {"target": "Kdn(a2-3)Gal(b1-4)GlcNAc", "procedure,_shortened": "as §1"}, "[5]": {"target": "Kdn(a2-3)Gal(b1-4)[Fuc(a1-3)]GlcNAc", "procedure,_shortened": "as §1"}, "Kdn(a2-6)Gal(b1-4)GlcNAc": {"target": "Kdn(a2-6)Gal(b1-4)GlcNAc", "procedure,_shortened": "as §1"}, "[6]": {"target": "Man(a1-2)Man(a1-2)Man(a1-3)Man", "procedure,_shortened": "as §1"}, "[7]": {"target": "Man(a1-2)Man(a1-2)Man(a1-6)[Man(a1-3)]Man", "procedure,_shortened": "as §1"}, "Man(a1-2)Man(a1-3)Man": {"target": "Man(a1-2)Man(a1-3)Man", "procedure,_shortened": "as §1"}, "[8]": {"target": "Man(a1-2)Man(a1-3)[Man(a1-2)Man(a1-6)]Man", "procedure,_shortened": "as §1"}, "[9]": {"target": "Man(a1-2)Man(a1-3)[Man(a1-2)Man(a1-6)]Man(a1-6)[Man(a1-2)Man(a1-2)Man(a1-3)]Man", "procedure,_shortened": "as §1"}, "[10]": {"target": "Man(a1-2)Man(a1-3)[Man(a1-2)Man(a1-6)]Man(a1-6)[Man(a1-2)Man(a1-2)Man(a1-3)]Man(b1-4)GlcNAc(b1-4)GlcNAc", "procedure,_shortened": "as §1"}, "[11]": {"target": "Man(a1-2)Man(a1-3)[Man(a1-6)]Man(a1-6)[Man(a1-2)Man(a1-3)]Man(b1-4)GlcNAc(b1-4)GlcNAc", "procedure,_shortened": "as §1"}, "[12]": {"target": "Man(a1-2)Man(a1-6)[Man(a1-3)]Man(a1-6)[Man(a1-2)Man(a1-2)Man(a1-3)]Man", "procedure,_shortened": "as §1"}, "[13]": {"target": "Man(a1-2)Man(a1-6)[Man(a1-3)]Man(a1-6)[Man(a1-2)Man(a1-2)Man(a1-3)]Man(b1-4)GlcNAc(b1-4)GlcNAc", "procedure,_shortened": "as §1"}, "Man(a1-3)[Man(a1-6)]Man": {"target": "Man(a1-3)[Man(a1-6)]Man", "procedure,_shortened": "as §1"}, "[14]": {"target": "Man(a1-3)[Man(a1-6)]Man(a1-6)[Man(a1-2)Man(a1-3)]Man(b1-4)GlcNAc(b1-4)GlcNAc", "procedure,_shortened": "as §1"}, "[15]": {"target": "Man(a1-3)[Man(a1-6)]Man(a1-6)[Man(a1-3)]Man", "procedure,_shortened": "as §1"}, "[16]": {"target": "Man(a1-3)[Man(a1-6)]Man(a1-6)[Man(a1-3)]Man(b1-4)GlcNAc(b1-4)GlcNAc", "procedure,_shortened": "as §1"}, "[17]": {"target": "Man(a1-3)[Man(a1-6)]Man(b1-4)GlcNAc(b1-4)GlcNAc", "procedure,_shortened": "as §1"}, "[18]": {"target": "Man(a1-3)[Man(a1-6)]Man(b1-4)GlcNAc(b1-4)[Fuc(a1-6)]GlcNAc", "procedure,_shortened": "as §1"}, "Man(a1-6)Man": {"target": "Man(a1-6)Man", "procedure,_shortened": "as §1"}, "Man(b1-4)GlcNAc": {"target": "Man(b1-4)GlcNAc", "procedure,_shortened": "as §1"}, "MurNAc(b1-4)GlcNAc": {"target": "MurNAc(b1-4)GlcNAc", "procedure,_shortened": "as §1"}, "Neu5Ac(a2-3)Gal": {"target": "Neu5Ac(a2-3)Gal", "procedure,_shortened": "as §1"}, "[19]": {"target": "Neu5Ac(a2-3)Gal(b1-3)GalNAc", "procedure,_shortened": "as §1"}, "[20]": {"target": "Neu5Ac(a2-3)Gal(b1-3)GalNAc(b1-3)Gal(a1-4)Gal(b1-4)Glc", "procedure,_shortened": "as §1"}, "[21]": {"target": "Neu5Ac(a2-3)Gal(b1-3)GalNAc(b1-4)Gal(b1-4)Glc", "procedure,_shortened": "as §1"}, "[22]": {"target": "Neu5Ac(a2-3)Gal(b1-3)GalNAc(b1-4)[Neu5Ac(a2-3)]Gal(b1-4)Glc", "procedure,_shortened": "as §1"}, "[23]": {"target": "Neu5Ac(a2-3)Gal(b1-3)GalNAc(b1-4)[Neu5Ac(a2-8)Neu5Ac(a2-3)]Gal(b1-4)Glc", "procedure,_shortened": "as §1"}, "[24]": {"target": "Neu5Ac(a2-3)Gal(b1-3)GalNAc6S", "procedure,_shortened": "as §1"}, "[25]": {"target": "Neu5Ac(a2-3)Gal(b1-3)GlcNAc", "procedure,_shortened": "as §1"}, "[26]": {"target": "Neu5Ac(a2-3)Gal(b1-3)GlcNAc(b1-2)Man", "procedure,_shortened": "as §1"}, "[27]": {"target": "Neu5Ac(a2-3)Gal(b1-3)GlcNAc(b1-2)Man(a1-3)[GlcNAc(b1-4)][Neu5Ac(a2-3)Gal(b1-3)GlcNAc(b1-2)Man(a1-6)]Man(b1-4)GlcNAc(b1-4)GlcNAc", "procedure,_shortened": "as §1"}, "[28]": {"target": "Neu5Ac(a2-3)Gal(b1-3)GlcNAc(b1-2)Man(a1-3)[Neu5Ac(a2-3)Gal(b1-3)GlcNAc(b1-2)Man(a1-6)]Man(b1-4)GlcNAc(b1-4)GlcNAc", "procedure,_shortened": "as §1"}, "[29]": {"target": "Neu5Ac(a2-3)Gal(b1-3)GlcNAc(b1-2)[Neu5Ac(a2-3)Gal(b1-3)GlcNAc(b1-4)]Man(a1-6)[Neu5Ac(a2-3)Gal(b1-3)GlcNAc(b1-2)Man(a1-3)]Man(b1-4)GlcNAc(b1-4)GlcNAc", "procedure,_shortened": "as §1"}, "[30]": {"target": "Neu5Ac(a2-3)Gal(b1-3)GlcNAc(b1-3)Gal(b1-3)GlcNAc", "procedure,_shortened": "as §1"}, "[31]": {"target": "Neu5Ac(a2-3)Gal(b1-3)GlcNAc(b1-3)Gal(b1-4)GlcNAc", "procedure,_shortened": "as §1"}, "[32]": {"target": "Neu5Ac(a2-3)Gal(b1-3)GlcNAc(b1-3)GalNAc", "procedure,_shortened": "as §1"}, "[33]": {"target": "Neu5Ac(a2-3)Gal(b1-3)GlcNAc(b1-6)GalNAc", "procedure,_shortened": "as §1"}},
  "note": "The list shows a part of the results.",
  "data": [
    {"binder": "B1", "values": [
      {"measurement": "glycan array binding signal (z-score)", "setting": "[1]", "result": -0.177},
      {"measurement": "glycan array binding signal (z-score)", "setting": "[2]", "result": -1.51},
      {"measurement": "glycan array binding signal (z-score)", "setting": "[3]", "result": 0.789},
      {"measurement": "glycan array binding signal (z-score)", "setting": "GlcNAc(b1-6)GalNAc", "result": -0.561},
      {"measurement": "glycan array binding signal (z-score)", "setting": "[4]", "result": 0.213},
      {"measurement": "glycan array binding signal (z-score)", "setting": "Kdn(a2-3)Gal(b1-3)GalNAc", "result": 0.552},
      {"measurement": "glycan array binding signal (z-score)", "setting": "Kdn(a2-3)Gal(b1-3)GlcNAc", "result": -0.024},
      {"measurement": "glycan array binding signal (z-score)", "setting": "Kdn(a2-3)Gal(b1-4)Glc", "result": -1.36},
      {"measurement": "glycan array binding signal (z-score)", "setting": "Kdn(a2-3)Gal(b1-4)GlcNAc", "result": -0.406},
      {"measurement": "glycan array binding signal (z-score)", "setting": "[5]", "result": 0.801},
      {"measurement": "glycan array binding signal (z-score)", "setting": "Kdn(a2-6)Gal(b1-4)GlcNAc", "result": 0.249},
      {"measurement": "glycan array binding signal (z-score)", "setting": "[6]", "result": 0.65},
      {"measurement": "glycan array binding signal (z-score)", "setting": "[7]", "result": -2.46},
      {"measurement": "glycan array binding signal (z-score)", "setting": "Man(a1-2)Man(a1-3)Man", "result": -1.81},
      {"measurement": "glycan array binding signal (z-score)", "setting": "[8]", "result": 0.418},
      {"measurement": "glycan array binding signal (z-score)", "setting": "[9]", "result": 2.53},
      {"measurement": "glycan array binding signal (z-score)", "setting": "[10]", "result": -0.996},
      {"measurement": "glycan array binding signal (z-score)", "setting": "[11]", "result": -0.649},
      {"measurement": "glycan array binding signal (z-score)", "setting": "[12]", "result": -2.27},
      {"measurement": "glycan array binding signal (z-score)", "setting": "[13]", "result": -0.263},
      {"measurement": "glycan array binding signal (z-score)", "setting": "Man(a1-3)[Man(a1-6)]Man", "result": 1.02},
      {"measurement": "glycan array binding signal (z-score)", "setting": "[14]", "result": 2.43},
      {"measurement": "glycan array binding signal (z-score)", "setting": "[15]", "result": -0.963},
      {"measurement": "glycan array binding signal (z-score)", "setting": "[16]", "result": -0.558},
      {"measurement": "glycan array binding signal (z-score)", "setting": "[17]", "result": -0.111},
      {"measurement": "glycan array binding signal (z-score)", "setting": "[18]", "result": 0.089},
      {"measurement": "glycan array binding signal (z-score)", "setting": "Man(a1-6)Man", "result": 0.871},
      {"measurement": "glycan array binding signal (z-score)", "setting": "Man(b1-4)GlcNAc", "result": 0.323},
      {"measurement": "glycan array binding signal (z-score)", "setting": "MurNAc(b1-4)GlcNAc", "result": -1.43},
      {"measurement": "glycan array binding signal (z-score)", "setting": "Neu5Ac(a2-3)Gal", "result": -0.813},
      {"measurement": "glycan array binding signal (z-score)", "setting": "[19]", "result": 0.608},
      {"measurement": "glycan array binding signal (z-score)", "setting": "[20]", "result": -0.506},
      {"measurement": "glycan array binding signal (z-score)", "setting": "[21]", "result": 1.57},
      {"measurement": "glycan array binding signal (z-score)", "setting": "[22]", "result": -1.19},
      {"measurement": "glycan array binding signal (z-score)", "setting": "[23]", "result": 0.315},
      {"measurement": "glycan array binding signal (z-score)", "setting": "[24]", "result": -0.202},
      {"measurement": "glycan array binding signal (z-score)", "setting": "[25]", "result": 0.181},
      {"measurement": "glycan array binding signal (z-score)", "setting": "[26]", "result": -1.23},
      {"measurement": "glycan array binding signal (z-score)", "setting": "[27]", "result": 1.74},
      {"measurement": "glycan array binding signal (z-score)", "setting": "[28]", "result": -0.199},
      {"measurement": "glycan array binding signal (z-score)", "setting": "[29]", "result": -0.029},
      {"measurement": "glycan array binding signal (z-score)", "setting": "[30]", "result": -2.02},
      {"measurement": "glycan array binding signal (z-score)", "setting": "[31]", "result": -0.256},
      {"measurement": "glycan array binding signal (z-score)", "setting": "[32]", "result": -0.351},
      {"measurement": "glycan array binding signal (z-score)", "setting": "[33]", "result": 0.51}
    ]}
  ]
}
